# Laboratory results taken from the supplement of paper PMC8728848.
# The list shows a part of the results.
# Assays:
# Assay in all cases: glycan array binding signal (z-score within array); higher = stronger binding
# Settings in all cases: glycan notation: IUPAC condensed, linker removed
# Gal(a1-3)Gal = target: Gal(a1-3)Gal
# Method in brief: (§1)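 Glycan array binding is given as a within-array Z-score, which can be read as non-binding when negative. The arrays, 3228 of them, came from the Consortium for Functional Glycomics database and were retained only where the protein sequence was available. Z-scores were averaged across arrays of the same protein sequence at different concentrations or buffers and across linkers.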
# Gal(a1-3)Gal(b1-3)GlcNAc = target: Gal(a1-3)Gal(b1-3)GlcNAc
# Method in brief: as §1
# [1] = target: Gal(a1-3)Gal(b1-3)GlcNAc(b1-2)Man(a1-3)[Gal(a1-3)Gal(b1-3)GlcNAc(b1-2)Man(a1-6)]Man(b1-4)GlcNAc(b1-4)GlcNAc
# Method in brief: as §1
# [2] = target: Gal(a1-3)Gal(b1-3)GlcNAc(b1-3)GalNAc
# Method in brief: as §1
# [3] = target: Gal(a1-3)Gal(b1-3)[Fuc(a1-4)]GlcNAc(b1-2)Man(a1-3)[Gal(a1-3)Gal(b1-3)[Fuc(a1-4)]GlcNAc(b1-2)Man(a1-6)]Man(b1-4)GlcNAc(b1-4)GlcNAc
# Method in brief: as §1
# Gal(a1-3)Gal(b1-4)Glc = target: Gal(a1-3)Gal(b1-4)Glc
# Method in brief: as §1
# Gal(a1-3)Gal(b1-4)GlcNAc = target: Gal(a1-3)Gal(b1-4)GlcNAc
# Method in brief: as §1
# [4] = target: Gal(a1-3)Gal(b1-4)GlcNAc(b1-3)GalNAc
# Method in brief: as §1
# [5] = target: Gal(a1-3)Gal(b1-4)[Fuc(a1-3)]GlcNAc
# Method in brief: as §1
# [6] = target: Gal(a1-3)Gal(b1-4)[Fuc(a1-3)]GlcNAc(b1-2)Man(a1-3)[Gal(a1-3)Gal(b1-4)[Fuc(a1-3)]GlcNAc(b1-2)Man(a1-6)]Man(b1-4)GlcNAc(b1-4)GlcNAc
# Method in brief: as §1
# Gal(a1-3)GalNAc = target: Gal(a1-3)GalNAc
# Method in brief: as §1
# [7] = target: Gal(a1-3)[Gal(a1-4)]Gal(b1-4)GlcNAc
# Method in brief: as §1
# [8] = target: Gal(a1-4)Gal(b1-3)GlcNAc(b1-2)Man(a1-3)[Gal(a1-4)Gal(b1-3)GlcNAc(b1-2)Man(a1-6)]Man(b1-4)GlcNAc(b1-4)GlcNAc
# Method in brief: as §1
# Gal(a1-4)Gal(b1-4)Glc = target: Gal(a1-4)Gal(b1-4)Glc
# Method in brief: as §1
# Gal(a1-4)Gal(b1-4)GlcNAc = target: Gal(a1-4)Gal(b1-4)GlcNAc
# Method in brief: as §1
# [9] = target: Gal(a1-4)Gal(b1-4)GlcNAc(b1-2)Man(a1-3)[Gal(a1-4)Gal(b1-4)GlcNAc(b1-2)Man(a1-6)]Man(b1-4)GlcNAc(b1-4)GlcNAc
# Method in brief: as §1
# [10] = target: Gal(a1-4)Gal(b1-4)GlcNAc(b1-3)Gal(b1-4)Glc
# Method in brief: as §1
# Gal(a1-4)GlcNAc = target: Gal(a1-4)GlcNAc
# Method in brief: as §1
# Gal(a1-6)Glc = target: Gal(a1-6)Glc
# Method in brief: as §1
# Gal(b1-2)Gal = target: Gal(b1-2)Gal
# Method in brief: as §1
# Gal(b1-3)Gal = target: Gal(b1-3)Gal
# Method in brief: as §1
# Gal(b1-3)Gal(b1-4)GlcNAc = target: Gal(b1-3)Gal(b1-4)GlcNAc
# Method in brief: as §1
# [11] = target: Gal(b1-3)Gal(b1-4)GlcNAc(b1-2)Man(a1-3)[Gal(b1-3)Gal(b1-4)GlcNAc(b1-2)Man(a1-6)]Man(b1-4)GlcNAc(b1-4)GlcNAc
# Method in brief: as §1
# Gal(b1-3)GalNAc = target: Gal(b1-3)GalNAc
# Method in brief: as §1
# [12] = target: Gal(b1-3)GalNAc(a1-3)[Fuc(a1-2)]Gal(b1-4)Glc
# Method in brief: as §1
# [13] = target: Gal(b1-3)GalNAc(a1-3)[Fuc(a1-2)]Gal(b1-4)GlcNAc
# Method in brief: as §1
# [14] = target: Gal(b1-3)GalNAc(b1-3)Gal(a1-4)Gal(b1-4)Glc
# Method in brief: as §1
# [15] = target: Gal(b1-3)GalNAc(b1-4)Gal(b1-4)Glc
# Method in brief: as §1
# [16] = target: Gal(b1-3)GalNAc(b1-4)[Neu5Ac(a2-3)]Gal(b1-4)Glc
# Method in brief: as §1
# Gal(b1-3)GlcNAc = target: Gal(b1-3)GlcNAc
# Method in brief: as §1
# [17] = target: Gal(b1-3)GlcNAc(a1-6)Gal(b1-4)GlcNAc
# Method in brief: as §1
# [18] = target: Gal(b1-3)GlcNAc(b1-2)Man(a1-3)[Gal(b1-3)GlcNAc(b1-2)Man(a1-6)]Man(b1-4)GlcNAc(b1-4)GlcNAc
# Method in brief: as §1
# [19] = target: Gal(b1-3)GlcNAc(b1-2)Man(a1-3)[Gal(b1-3)GlcNAc(b1-2)Man(a1-6)]Man(b1-4)GlcNAc(b1-4)[Fuc(a1-6)]GlcNAc
# Method in brief: as §1
# [20] = target: Gal(b1-3)GlcNAc(b1-2)[Gal(b1-3)GlcNAc(b1-6)]Man(a1-6)[Gal(b1-3)GlcNAc(b1-2)Man(a1-3)]Man(b1-4)GlcNAc(b1-4)GlcNAc
# Method in brief: as §1
# [21] = target: Gal(b1-3)GlcNAc(b1-3)Gal(b1-3)GlcNAc
# Method in brief: as §1
# [22] = target: Gal(b1-3)GlcNAc(b1-3)Gal(b1-4)Glc
# Method in brief: as §1
# [23] = target: Gal(b1-3)GlcNAc(b1-3)Gal(b1-4)GlcNAc
# Method in brief: as §1
# [24] = target: Gal(b1-3)GlcNAc(b1-3)Gal(b1-4)GlcNAc(b1-6)[Gal(b1-3)GlcNAc(b1-3)]Gal(b1-4)Glc
# Method in brief: as §1
# [25] = target: Gal(b1-3)GlcNAc(b1-3)Gal(b1-4)[Fuc(a1-3)]GlcNAc(b1-6)[Gal(b1-3)GlcNAc(b1-3)]Gal(b1-4)Glc
# Method in brief: as §1
# [26] = target: Gal(b1-3)GlcNAc(b1-3)GalNAc
# Method in brief: as §1
# [27] = target: Gal(b1-3)GlcNAc(b1-6)Gal(b1-4)GlcNAc
# Method in brief: as §1
# [28] = target: Gal(b1-3)[Fuc(a1-4)]GlcNAc
# Method in brief: as §1
# [29] = target: Gal(b1-3)[Fuc(a1-4)]GlcNAc(b1-2)Man(a1-3)[Gal(b1-3)[Fuc(a1-4)]GlcNAc(b1-2)Man(a1-6)]Man(b1-4)GlcNAc(b1-4)GlcNAc
# Method in brief: as §1
# [30] = target: Gal(b1-3)[Fuc(a1-4)]GlcNAc(b1-2)Man(a1-3)[Gal(b1-3)[Fuc(a1-4)]GlcNAc(b1-2)Man(a1-6)]Man(b1-4)GlcNAc(b1-4)[Fuc(a1-6)]GlcNAc
# Method in brief: as §1
# [31] = target: Gal(b1-3)[Fuc(a1-4)]GlcNAc(b1-3)Gal(b1-3)[Fuc(a1-4)]GlcNAc
# Method in brief: as §1
binder,measurement,setting,value
"Eosinophil-derived neurotoxin (EDN) (Homo sapiens), P10153 (protein) MVPKLFTSQICLLLLLGLLAVEGSLHVKPPQFTWAQWFETQHINMTSQQCTNAMQVINNYQRRCKNQNTFLLTTFANVVNVCGNPNMTCPSNKTRKNCHHSGSQVPLIHCNLTTPSPQNISNCRYAQTPANMFYIVACDNRDQRRDPPQYPVVPVHLDRII",glycan array binding signal (z-score),Gal(a1-3)Gal,-0.363
same,glycan array binding signal (z-score),Gal(a1-3)Gal(b1-3)GlcNAc,0.312
same,glycan array binding signal (z-score),[1],0.922
same,glycan array binding signal (z-score),[2],-0.267
same,glycan array binding signal (z-score),[3],-0.711
same,glycan array binding signal (z-score),Gal(a1-3)Gal(b1-4)Glc,0.4
same,glycan array binding signal (z-score),Gal(a1-3)Gal(b1-4)GlcNAc,0.494
same,glycan array binding signal (z-score),[4],0.141
same,glycan array binding signal (z-score),[5],-0.513
same,glycan array binding signal (z-score),[6],0.387
same,glycan array binding signal (z-score),Gal(a1-3)GalNAc,-0.593
same,glycan array binding signal (z-score),[7],-0.648
same,glycan array binding signal (z-score),[8],-0.75
same,glycan array binding signal (z-score),Gal(a1-4)Gal(b1-4)Glc,-0.014
same,glycan array binding signal (z-score),Gal(a1-4)Gal(b1-4)GlcNAc,0.051
same,glycan array binding signal (z-score),[9],-0.002
same,glycan array binding signal (z-score),[10],-0.652
same,glycan array binding signal (z-score),Gal(a1-4)GlcNAc,-0.369
same,glycan array binding signal (z-score),Gal(a1-6)Glc,-0.225
same,glycan array binding signal (z-score),Gal(b1-2)Gal,0.489
same,glycan array binding signal (z-score),Gal(b1-3)Gal,-0.224
same,glycan array binding signal (z-score),Gal(b1-3)Gal(b1-4)GlcNAc,-0.796
same,glycan array binding signal (z-score),[11],0.187
same,glycan array binding signal (z-score),Gal(b1-3)GalNAc,-0.002
same,glycan array binding signal (z-score),[12],-0.573
same,glycan array binding signal (z-score),[13],0.269
same,glycan array binding signal (z-score),[14],0.257
same,glycan array binding signal (z-score),[15],-0.678
same,glycan array binding signal (z-score),[16],1.07
same,glycan array binding signal (z-score),Gal(b1-3)GlcNAc,-0.339
same,glycan array binding signal (z-score),[17],0.141
same,glycan array binding signal (z-score),[18],-0.33
same,glycan array binding signal (z-score),[19],0.987
same,glycan array binding signal (z-score),[20],0.926
same,glycan array binding signal (z-score),[21],-0.011
same,glycan array binding signal (z-score),[22],-0.936
same,glycan array binding signal (z-score),[23],0.648
same,glycan array binding signal (z-score),[24],0.317
same,glycan array binding signal (z-score),[25],0.9
same,glycan array binding signal (z-score),[26],-0.212
same,glycan array binding signal (z-score),[27],-0.399
same,glycan array binding signal (z-score),[28],-0.366
same,glycan array binding signal (z-score),[29],-0.309
same,glycan array binding signal (z-score),[30],0.633
same,glycan array binding signal (z-score),[31],0.689

# A portion of the results above:
binder,measurement,setting,value
"Eosinophil-derived neurotoxin (EDN) (Homo sapiens), P10153 (protein) MVPKLFTSQICLLLLLGLLAVEGSLHVKPPQFTWAQWFETQHINMTSQQCTNAMQVINNYQRRCKNQNTFLLTTFANVVNVCGNPNMTCPSNKTRKNCHHSGSQVPLIHCNLTTPSPQNISNCRYAQTPANMFYIVACDNRDQRRDPPQYPVVPVHLDRII",glycan array binding signal (z-score),[17],0.141
same,glycan array binding signal (z-score),[18],-0.33
same,glycan array binding signal (z-score),[19],0.987
same,glycan array binding signal (z-score),[20],0.926
same,glycan array binding signal (z-score),[21],-0.011
same,glycan array binding signal (z-score),[22],-0.936
same,glycan array binding signal (z-score),[23],0.648
same,glycan array binding signal (z-score),[24],0.317
same,glycan array binding signal (z-score),[25],0.9
same,glycan array binding signal (z-score),[26],-0.212
same,glycan array binding signal (z-score),[27],-0.399
same,glycan array binding signal (z-score),[28],-0.366
